Results deposited as PubChem BioAssay AID1259424 (University of Nebraska Medical Center, 2018)
The whole screen tested about 14,000 reagents; below is a part drawn at random. 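Higher correlation or smaller distance means closer resemblance to KSR1 loss; control wells, including KSR1 knockdowns, recur on many plates.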 Further read-outs or replicates are left out here. Reagent sequences are not shown. The record does not give: the time to read-out.

Purpose: 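Find knockdowns that reproduce the expression shifts seen after KSR1 loss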 (primary screen)
Cells: human HCT116 colon cancer cells
Knock-down reagent: siRNA pool against human genes, 50 nM
Detection: 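Six signature mRNAs by branched-DNA multiplex assay, scaled to two housekeeping genes and non-targeting median, log2; matched to mean KSR1 knockdown profile by Pearson correlation and euclidean distance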
Direction: mean correlation with KSR1 profile: higher = expression change more like KSR1 knockdown; mean distance from KSR1 profile: higher = expression change less like KSR1 knockdown

With knock-down of OR10H2 [SID363998532] the results were mean correlation with KSR1 profile 0.779; mean distance from KSR1 profile 1.41. With knock-down of HADHA [SID363991518] the results were mean correlation with KSR1 profile 0.128; mean distance from KSR1 profile 1.8. Silencing of SFMBT2 [SID364005299] resulted in: mean correlation with KSR1 profile 0.686; mean distance from KSR1 profile 1.42. For RAPGEF4 [SID363997755] the deposit lists mean correlation with KSR1 profile 0.693; mean distance from KSR1 profile 0.832. FUT9 [SID363997372] showed mean correlation with KSR1 profile -0.267; mean distance from KSR1 profile 1.76. With knock-down of DYNC2I1 [SID364000739] the results were mean correlation with KSR1 profile -0.348; mean distance from KSR1 profile 1.94.

Knock-down of ING2 [SID363992820] resulted in: mean correlation with KSR1 profile 0.0584; mean distance from KSR1 profile 2.69. Knock-down of GBE1 [SID363991494] came out at: mean correlation with KSR1 profile -0.29; mean distance from KSR1 profile 2.26. Knock-down of FAM90A1 [SID364000770] came out at: mean correlation with KSR1 profile -0.282; mean distance from KSR1 profile 2.72. For DBNDD2 [SID364001106] the deposit lists mean correlation with KSR1 profile -0.71; mean distance from KSR1 profile 3.07. With knock-down of ABHD10 [SID364001036], the screen gave mean correlation with KSR1 profile -0.206; mean distance from KSR1 profile 1.89. Knock-down of FEZ2 [SID363996038] came out at: mean correlation with KSR1 profile -0.219; mean distance from KSR1 profile 1.25.

Part of the list above in another layout:
gene,PubChem SID,mean correlation with KSR1 profile,mean distance from KSR1 profile
FAM90A1,SID364000770,-0.282,2.72
DBNDD2,SID364001106,-0.71,3.07
ABHD10,SID364001036,-0.206,1.89
FEZ2,SID363996038,-0.219,1.25

Next reagents follow.
TMED9 [SID364000329] scored mean correlation with KSR1 profile 0.0383; mean distance from KSR1 profile 3.67. Depletion of PLEKHG5 [SID364001737] gave: mean correlation with KSR1 profile -0.127; mean distance from KSR1 profile 2.41. For HLA-DRA [SID364001410], the entry reads mean correlation with KSR1 profile 0.337; mean distance from KSR1 profile 1.76. With knock-down of SOX3 [SID363996528] the results were mean correlation with KSR1 profile -0.00863; mean distance from KSR1 profile 3.56. With knock-down of DNMT1 [SID363992650], the record shows mean correlation with KSR1 profile 0.327; mean distance from KSR1 profile 3.2. After knock-down of FBXW10 [SID364003639] the results were mean correlation with KSR1 profile -0.668; mean distance from KSR1 profile 2.62.

UNC93A [SID364001298] showed mean correlation with KSR1 profile -0.219; mean distance from KSR1 profile 1.59. With knock-down of IGHMBP2 [SID363993382], the record shows mean correlation with KSR1 profile -0.0716; mean distance from KSR1 profile 1.82. With knock-down of GALNT5 [SID363998940] the results were mean correlation with KSR1 profile 0.0467; mean distance from KSR1 profile 1.05. Silencing of SVOP [SID364001197] gave: mean correlation with KSR1 profile -0.12; mean distance from KSR1 profile 2.37. BMAL1 [SID363992469] showed mean correlation with KSR1 profile -0.742; mean distance from KSR1 profile 1.25. CHCHD7 [SID364002776] scored mean correlation with KSR1 profile 0.222; mean distance from KSR1 profile 2.66.

After knock-down of ACTR5 [SID364003113], the screen gave mean correlation with KSR1 profile 0.7; mean distance from KSR1 profile 0.94. Against DCLK3 [SID364005195], the values are mean correlation with KSR1 profile 0.0439; mean distance from KSR1 profile 1.93. Against FNDC11 [SID364002717], the values are mean correlation with KSR1 profile 0.458; mean distance from KSR1 profile 3.14. With knock-down of METTL4 [SID364002583] the results were mean correlation with KSR1 profile -0.36; mean distance from KSR1 profile 2.39.
